This is one part of the list.
compound: O=C(O)c1ccc2c(c1)nc(Nc1cccc(Cl)c1)c1ccncc12 [silmitasertib]; assay: log2 fold change, soluble protein after heating vs DMSO (PISA); higher = thermal stabilisation; K562 lysate, 10 uM; active = over 0.2 and 3.5 SD of the protein, either way, in both replicates (recomputed)
Procedure, shortened: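 Following dounce homogenisation of K562 pellets in PBS pH 7.4 with 1 mM MgCl2, crude extract at 1 mg/mL protein was incubated for 30 min with 10 μM compound. Aliquots were then heated for 3 min over 48°C-58°C and pooled, NP-40 was added to 0.5% at 4°C, and soluble protein was recovered as the supernatant at 21,000xg for 90 min. Channel-sum-equalised TMTpro 16plex LC-MS/MS quantified this protein. Each value, from duplicates, is a log-two fold change in thermal stability relative to solvent controls.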

Sequences of proteins named here, by UniProt entry; tags and fusion partners are left off. A change or cut given only in a name is not applied to a line headed by its entry.
UniProt P0CL80: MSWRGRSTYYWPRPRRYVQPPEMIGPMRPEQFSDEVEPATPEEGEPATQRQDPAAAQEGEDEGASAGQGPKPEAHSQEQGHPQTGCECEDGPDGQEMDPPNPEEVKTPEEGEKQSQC
UniProt Q8TB36: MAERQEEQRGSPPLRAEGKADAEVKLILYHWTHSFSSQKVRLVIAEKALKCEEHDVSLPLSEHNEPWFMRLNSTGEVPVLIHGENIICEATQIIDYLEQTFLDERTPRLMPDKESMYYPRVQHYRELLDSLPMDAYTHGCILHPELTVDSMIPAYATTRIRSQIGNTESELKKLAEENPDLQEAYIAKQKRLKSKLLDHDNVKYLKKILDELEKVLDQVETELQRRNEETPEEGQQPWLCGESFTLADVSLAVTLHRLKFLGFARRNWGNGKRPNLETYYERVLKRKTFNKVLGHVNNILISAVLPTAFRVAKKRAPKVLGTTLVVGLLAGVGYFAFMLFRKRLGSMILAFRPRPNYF
UniProt Q70Z53: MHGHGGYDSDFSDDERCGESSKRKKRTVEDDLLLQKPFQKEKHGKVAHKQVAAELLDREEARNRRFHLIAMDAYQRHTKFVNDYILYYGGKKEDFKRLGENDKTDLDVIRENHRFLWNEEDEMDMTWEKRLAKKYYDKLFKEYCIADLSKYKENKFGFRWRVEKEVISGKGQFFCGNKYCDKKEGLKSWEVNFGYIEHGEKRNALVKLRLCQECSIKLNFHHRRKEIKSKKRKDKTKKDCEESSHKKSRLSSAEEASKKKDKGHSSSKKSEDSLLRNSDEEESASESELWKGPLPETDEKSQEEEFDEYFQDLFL
UniProt Q96CN9: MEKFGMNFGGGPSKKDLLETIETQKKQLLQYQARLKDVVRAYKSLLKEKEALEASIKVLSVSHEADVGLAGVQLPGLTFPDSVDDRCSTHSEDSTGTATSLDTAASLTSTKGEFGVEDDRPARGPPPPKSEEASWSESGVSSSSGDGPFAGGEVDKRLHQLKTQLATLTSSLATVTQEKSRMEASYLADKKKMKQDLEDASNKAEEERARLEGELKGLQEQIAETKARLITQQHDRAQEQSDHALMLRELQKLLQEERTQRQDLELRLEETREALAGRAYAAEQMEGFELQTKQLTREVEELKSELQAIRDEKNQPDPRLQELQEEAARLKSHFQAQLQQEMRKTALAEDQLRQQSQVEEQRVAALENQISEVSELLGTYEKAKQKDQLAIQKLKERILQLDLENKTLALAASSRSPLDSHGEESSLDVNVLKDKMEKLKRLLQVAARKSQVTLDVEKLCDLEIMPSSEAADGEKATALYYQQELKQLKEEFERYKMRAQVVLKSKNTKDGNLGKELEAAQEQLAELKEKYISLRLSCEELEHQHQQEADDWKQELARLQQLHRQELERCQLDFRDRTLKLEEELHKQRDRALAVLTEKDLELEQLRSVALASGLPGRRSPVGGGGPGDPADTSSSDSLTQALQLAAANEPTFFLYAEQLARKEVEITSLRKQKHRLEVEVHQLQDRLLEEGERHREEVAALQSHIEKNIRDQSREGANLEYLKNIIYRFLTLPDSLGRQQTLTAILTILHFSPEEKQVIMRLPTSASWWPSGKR
UniProt Q8IWJ2: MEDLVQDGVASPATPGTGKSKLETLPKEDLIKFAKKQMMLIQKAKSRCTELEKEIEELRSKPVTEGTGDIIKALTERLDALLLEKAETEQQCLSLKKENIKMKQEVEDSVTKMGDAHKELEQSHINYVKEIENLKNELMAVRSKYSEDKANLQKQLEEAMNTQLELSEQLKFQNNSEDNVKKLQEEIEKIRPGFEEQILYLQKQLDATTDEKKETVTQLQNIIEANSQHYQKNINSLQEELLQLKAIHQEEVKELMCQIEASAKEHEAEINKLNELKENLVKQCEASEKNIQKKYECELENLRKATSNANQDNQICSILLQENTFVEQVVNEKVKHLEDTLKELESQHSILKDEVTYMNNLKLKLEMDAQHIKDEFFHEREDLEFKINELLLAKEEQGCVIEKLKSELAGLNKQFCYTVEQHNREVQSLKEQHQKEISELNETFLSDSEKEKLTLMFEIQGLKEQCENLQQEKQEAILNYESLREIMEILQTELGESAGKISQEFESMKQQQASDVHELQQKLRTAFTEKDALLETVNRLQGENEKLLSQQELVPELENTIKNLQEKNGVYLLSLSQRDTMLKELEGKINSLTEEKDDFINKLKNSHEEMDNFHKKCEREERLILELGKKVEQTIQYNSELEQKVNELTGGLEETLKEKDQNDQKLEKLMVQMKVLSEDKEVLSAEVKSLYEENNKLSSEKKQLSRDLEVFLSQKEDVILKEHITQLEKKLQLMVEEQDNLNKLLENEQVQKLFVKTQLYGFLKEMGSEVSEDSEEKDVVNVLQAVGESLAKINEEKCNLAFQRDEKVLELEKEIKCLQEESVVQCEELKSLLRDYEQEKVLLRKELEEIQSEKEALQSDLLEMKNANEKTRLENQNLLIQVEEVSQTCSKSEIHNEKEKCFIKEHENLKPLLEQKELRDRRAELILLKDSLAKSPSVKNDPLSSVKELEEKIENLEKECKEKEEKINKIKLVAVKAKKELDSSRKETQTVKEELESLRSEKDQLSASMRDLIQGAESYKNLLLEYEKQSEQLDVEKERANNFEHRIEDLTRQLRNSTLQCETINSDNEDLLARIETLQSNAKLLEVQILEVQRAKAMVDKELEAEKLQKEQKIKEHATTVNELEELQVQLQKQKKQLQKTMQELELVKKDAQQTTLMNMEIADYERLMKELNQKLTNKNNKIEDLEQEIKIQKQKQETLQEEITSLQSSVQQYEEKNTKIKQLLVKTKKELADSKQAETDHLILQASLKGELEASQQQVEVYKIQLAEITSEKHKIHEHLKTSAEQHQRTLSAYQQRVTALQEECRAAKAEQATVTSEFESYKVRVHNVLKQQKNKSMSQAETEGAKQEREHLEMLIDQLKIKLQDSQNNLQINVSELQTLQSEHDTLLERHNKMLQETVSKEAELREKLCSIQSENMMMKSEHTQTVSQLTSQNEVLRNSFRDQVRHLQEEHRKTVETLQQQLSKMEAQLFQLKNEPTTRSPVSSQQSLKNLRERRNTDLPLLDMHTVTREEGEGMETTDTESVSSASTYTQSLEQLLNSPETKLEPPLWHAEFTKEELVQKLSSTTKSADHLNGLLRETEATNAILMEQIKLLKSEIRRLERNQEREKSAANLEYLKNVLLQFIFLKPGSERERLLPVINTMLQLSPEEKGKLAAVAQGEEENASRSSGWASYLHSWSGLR
UniProt Q9NWZ8: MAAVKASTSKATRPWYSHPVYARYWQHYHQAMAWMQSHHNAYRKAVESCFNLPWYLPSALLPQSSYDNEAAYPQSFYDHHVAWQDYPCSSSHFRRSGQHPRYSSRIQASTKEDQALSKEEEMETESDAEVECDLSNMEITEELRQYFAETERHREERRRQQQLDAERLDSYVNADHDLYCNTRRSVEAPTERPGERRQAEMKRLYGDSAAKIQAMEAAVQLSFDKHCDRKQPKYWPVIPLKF
UniProt P35637: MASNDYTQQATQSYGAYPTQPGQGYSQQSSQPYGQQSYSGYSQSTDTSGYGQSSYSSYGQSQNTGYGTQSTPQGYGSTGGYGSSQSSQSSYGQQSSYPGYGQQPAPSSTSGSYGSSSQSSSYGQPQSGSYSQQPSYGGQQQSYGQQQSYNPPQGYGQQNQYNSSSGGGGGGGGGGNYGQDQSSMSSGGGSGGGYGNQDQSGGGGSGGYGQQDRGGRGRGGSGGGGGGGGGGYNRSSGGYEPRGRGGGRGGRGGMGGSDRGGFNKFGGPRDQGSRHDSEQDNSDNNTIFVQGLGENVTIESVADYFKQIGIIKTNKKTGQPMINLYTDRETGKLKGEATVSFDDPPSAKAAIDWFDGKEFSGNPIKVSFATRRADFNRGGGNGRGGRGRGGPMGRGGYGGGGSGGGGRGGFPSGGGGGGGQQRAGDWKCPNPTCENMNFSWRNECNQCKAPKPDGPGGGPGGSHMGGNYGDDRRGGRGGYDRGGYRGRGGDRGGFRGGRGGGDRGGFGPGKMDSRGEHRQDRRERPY
UniProt Q14697: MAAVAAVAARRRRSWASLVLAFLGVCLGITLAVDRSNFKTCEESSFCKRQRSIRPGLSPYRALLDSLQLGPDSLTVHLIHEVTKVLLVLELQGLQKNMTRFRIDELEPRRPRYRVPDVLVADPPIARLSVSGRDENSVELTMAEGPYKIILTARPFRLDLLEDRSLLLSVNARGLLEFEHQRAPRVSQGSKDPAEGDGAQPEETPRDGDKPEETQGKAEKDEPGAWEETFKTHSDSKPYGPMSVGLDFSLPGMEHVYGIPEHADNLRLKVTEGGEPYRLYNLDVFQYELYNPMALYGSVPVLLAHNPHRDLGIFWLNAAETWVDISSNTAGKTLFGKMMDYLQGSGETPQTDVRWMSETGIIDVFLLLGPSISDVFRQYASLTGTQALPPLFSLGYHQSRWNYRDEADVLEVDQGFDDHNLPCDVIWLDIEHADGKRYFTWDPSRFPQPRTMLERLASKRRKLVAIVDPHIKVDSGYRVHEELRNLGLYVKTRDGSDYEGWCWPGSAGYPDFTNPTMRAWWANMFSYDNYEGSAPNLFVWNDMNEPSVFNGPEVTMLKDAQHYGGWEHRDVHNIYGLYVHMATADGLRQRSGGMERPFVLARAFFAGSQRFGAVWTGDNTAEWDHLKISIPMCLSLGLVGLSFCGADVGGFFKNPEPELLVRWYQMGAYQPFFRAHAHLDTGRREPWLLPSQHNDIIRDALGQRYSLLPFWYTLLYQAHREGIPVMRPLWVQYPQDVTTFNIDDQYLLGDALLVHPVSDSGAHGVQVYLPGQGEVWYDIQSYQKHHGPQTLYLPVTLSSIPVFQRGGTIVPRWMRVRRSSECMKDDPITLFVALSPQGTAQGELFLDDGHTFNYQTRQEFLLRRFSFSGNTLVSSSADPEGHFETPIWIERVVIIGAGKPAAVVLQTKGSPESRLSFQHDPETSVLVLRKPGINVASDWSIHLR
UniProt P04062: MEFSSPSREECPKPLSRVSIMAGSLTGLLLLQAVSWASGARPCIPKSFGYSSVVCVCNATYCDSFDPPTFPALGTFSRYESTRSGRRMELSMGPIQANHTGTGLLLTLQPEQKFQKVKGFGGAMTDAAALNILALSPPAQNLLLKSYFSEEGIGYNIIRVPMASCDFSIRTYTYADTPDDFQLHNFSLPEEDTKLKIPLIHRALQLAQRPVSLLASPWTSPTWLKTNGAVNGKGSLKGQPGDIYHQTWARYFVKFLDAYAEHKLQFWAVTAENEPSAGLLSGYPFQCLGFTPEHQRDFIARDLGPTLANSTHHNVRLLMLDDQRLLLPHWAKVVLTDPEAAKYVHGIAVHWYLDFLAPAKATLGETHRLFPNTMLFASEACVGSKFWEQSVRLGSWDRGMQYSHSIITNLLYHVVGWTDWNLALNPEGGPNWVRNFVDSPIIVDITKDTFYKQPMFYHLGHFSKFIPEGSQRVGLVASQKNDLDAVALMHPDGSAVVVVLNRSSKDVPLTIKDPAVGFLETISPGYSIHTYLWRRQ
UniProt P04406: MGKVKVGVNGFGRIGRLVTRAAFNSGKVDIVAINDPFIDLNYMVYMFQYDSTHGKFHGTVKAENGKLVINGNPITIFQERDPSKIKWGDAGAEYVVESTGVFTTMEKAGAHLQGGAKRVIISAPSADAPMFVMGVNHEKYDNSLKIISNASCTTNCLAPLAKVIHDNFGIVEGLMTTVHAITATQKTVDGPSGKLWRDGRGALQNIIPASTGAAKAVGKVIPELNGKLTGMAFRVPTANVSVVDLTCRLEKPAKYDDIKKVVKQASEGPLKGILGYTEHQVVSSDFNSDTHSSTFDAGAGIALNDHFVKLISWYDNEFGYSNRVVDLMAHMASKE
UniProt Q96CU9: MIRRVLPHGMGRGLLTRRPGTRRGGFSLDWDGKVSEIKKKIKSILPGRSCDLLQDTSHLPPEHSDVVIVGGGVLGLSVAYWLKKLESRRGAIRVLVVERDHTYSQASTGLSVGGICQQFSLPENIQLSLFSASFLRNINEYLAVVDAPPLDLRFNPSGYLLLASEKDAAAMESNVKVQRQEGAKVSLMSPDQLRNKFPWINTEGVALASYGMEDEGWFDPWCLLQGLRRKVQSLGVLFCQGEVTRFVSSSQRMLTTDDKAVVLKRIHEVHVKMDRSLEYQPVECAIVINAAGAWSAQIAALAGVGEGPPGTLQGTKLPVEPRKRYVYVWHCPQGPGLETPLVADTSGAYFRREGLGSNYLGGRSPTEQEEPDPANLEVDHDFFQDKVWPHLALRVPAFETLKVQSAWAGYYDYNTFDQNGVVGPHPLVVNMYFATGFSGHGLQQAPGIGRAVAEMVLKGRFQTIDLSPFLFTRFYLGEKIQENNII
UniProt P02794, whole entry, looked up: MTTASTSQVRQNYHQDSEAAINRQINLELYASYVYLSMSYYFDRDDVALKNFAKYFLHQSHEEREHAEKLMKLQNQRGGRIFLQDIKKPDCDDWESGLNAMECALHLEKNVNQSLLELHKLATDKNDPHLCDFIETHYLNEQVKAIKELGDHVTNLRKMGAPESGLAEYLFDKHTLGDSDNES

log2 fold change, inactive:
GAGE12F (UniProt P0CL80) -0.06, GDAP1 (UniProt Q8TB36) 0.021, GAPVD1 isoform 6 (UniProt Q14C86) 0.04, FPGT (UniProt O14772) 0.008, FYTTD1 (UniProt Q96QD9) 0.008, GCLC (UniProt P48506) 0.008, GDI2 (UniProt P50395) 0.004, GALNT10 (UniProt Q86SR1) -0.36, GCLM (UniProt P48507) -0.013, FOXJ3 (UniProt Q9UPW0) 0.114, GATAD2A isoform 3 (UniProt Q86YP4) -0.028, GALNT2 (UniProt Q10471) 0.008, GFM1 (UniProt Q96RP9) 0.043, FRA10AC1 (UniProt Q70Z53) 0.019, GEMIN6 (UniProt Q8WXD5) -0.012, GARS1 (UniProt P41250) 0, GCSH (UniProt P23434) 0.111, GAB1 isoform 2 (UniProt Q13480) -0.069, FRYL (UniProt O94915) 0.003, GDPGP1 (UniProt Q6ZNW5) -0.047, FYN (UniProt P06241) -0.001, GALNT5 (UniProt Q7Z7M9) 0.001, GCC1 (UniProt Q96CN9) 0.016, GFPT1 (UniProt Q06210) 0.004, GCC2 (UniProt Q8IWJ2) -0.014, GEMIN8 (UniProt Q9NWZ8) 0.052, FUS (UniProt P35637) 0.005, GANAB isoform 2 (UniProt Q14697) 0.011, FTSJ1 (UniProt Q9UET6) 0.024, GEMIN4 (UniProt P57678) 0.1, GBA (UniProt P04062) -0.042, GABARAPL2 (UniProt P60520) 0.014, FXN (UniProt Q16595) -0.065, GAMT (UniProt Q14353) -0.008, GAPDH (UniProt P04406) -0.033, GALT (UniProt P07902) -0.136, FOXRED1 (UniProt Q96CU9) 0.011, GCN1 (UniProt Q92616) 0.114, FTH1 (UniProt P02794) 0.013
